From paper PMC11634154
Results are given in words; binding and its absence hold for the method and conditions named. In cells and extracts the contact can be indirect. Some results given as binding are weak or reduced against the parent protein; the word gives no strength. Where a sequence is shown, tags or fusion partners need not be part of it.

Amino acid sequences for entries named in this document (tags omitted).
UniProt P20226: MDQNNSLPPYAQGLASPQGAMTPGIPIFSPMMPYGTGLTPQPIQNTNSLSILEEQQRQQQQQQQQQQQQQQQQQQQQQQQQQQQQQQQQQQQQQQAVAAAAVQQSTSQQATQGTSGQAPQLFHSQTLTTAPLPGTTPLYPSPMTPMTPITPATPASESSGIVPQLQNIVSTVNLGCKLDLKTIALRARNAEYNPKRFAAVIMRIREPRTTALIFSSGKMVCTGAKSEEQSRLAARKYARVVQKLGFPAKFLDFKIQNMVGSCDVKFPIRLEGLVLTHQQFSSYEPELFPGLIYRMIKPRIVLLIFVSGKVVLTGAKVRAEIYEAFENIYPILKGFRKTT

Molecular target: TBP-gfp (UniProt P20226)
Assay: co-IP; non-denaturing cell lysates (IP/CO-IP kit, Abbkine), pre-cleared with protein A/G agarose beads; incubated with mouse anti-GFP, microspheres coupled with rabbit anti-FLAG, or rabbit IgG overnight at 4°C; washed four times with cold lysis buffer; Western blot

binding: binds
B1: MROH8-flag (protein, UniProt Q9H579 1-483)
chain: MSSKHRICSQEEVVIPCAYDSDSESVDLELSNLEIIKKGSSSIELTDLDIPDIPGLHCEPLSHSPRHLTQQDPLSEAIVEKLIQSIQKVFNGELKGELEKLKFLGDLSSLSQALPYDETAKSFIHSHIADIVHTLNVLVQEERPHSLSSSMRQEVFVTIADLSYQDVHLLLGSEDRAELFSLTIKSIITLPSVRTLTQIQEIMPNGTCNTECLYRQTFQAFSEMLQSLVVKDPHLENLDTIIKLPLRFQRLGHLVALMALLCGDPQEKVAEEAAEGIHSLLHITLRLKYITHDKKDQQNLKRALTKCREFLELHSSAAKCFYNCPFRIAQVFEGFLDSNELCQFIMTTFDTLKTLKHPCIQRSAGELLLTLAKNTESQFEKVPEIMGVICAQLSIISQPRVRQQIINTVSLFISRPKYTDIVLSFLLCHPVPYNRHLAEVWRMLSVELPSTTWILWRLLRKLQKCHNEPAQEKMAYVAVAVSP
